Measured values: patent publication US20050130130A1 (INSTITUT NATIONAL DE LA SANTE ET DE LA RECHERCHE MEDICALE …, published 2005)
These are yes or no findings as the source states them, for the method shown. For some of these results: Binding seen in cells or lysates may run through a third protein. Some binding calls cover weakened binding; strength is not graded here.

Amino acid sequences for entries named in this document (tags omitted). A change or cut given only in a name is not applied to a line headed by its entry. Residues count along the entry.
UniProt P08637, residues 17-254: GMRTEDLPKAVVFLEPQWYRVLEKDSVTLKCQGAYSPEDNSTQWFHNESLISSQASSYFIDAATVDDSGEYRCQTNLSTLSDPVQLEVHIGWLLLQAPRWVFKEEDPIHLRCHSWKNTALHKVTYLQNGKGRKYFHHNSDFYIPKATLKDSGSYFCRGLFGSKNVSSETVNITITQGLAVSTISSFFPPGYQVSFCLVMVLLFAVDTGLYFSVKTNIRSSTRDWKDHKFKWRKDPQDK
UniProt P43631, residues 22-304: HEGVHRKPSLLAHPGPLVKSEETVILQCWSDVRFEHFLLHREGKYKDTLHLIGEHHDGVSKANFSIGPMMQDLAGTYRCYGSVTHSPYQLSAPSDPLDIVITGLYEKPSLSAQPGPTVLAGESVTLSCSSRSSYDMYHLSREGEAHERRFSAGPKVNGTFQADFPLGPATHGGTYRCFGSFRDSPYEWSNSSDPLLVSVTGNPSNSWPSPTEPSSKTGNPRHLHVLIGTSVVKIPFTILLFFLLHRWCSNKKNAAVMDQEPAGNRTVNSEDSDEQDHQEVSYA
UniProt Q14954, residues 22-304: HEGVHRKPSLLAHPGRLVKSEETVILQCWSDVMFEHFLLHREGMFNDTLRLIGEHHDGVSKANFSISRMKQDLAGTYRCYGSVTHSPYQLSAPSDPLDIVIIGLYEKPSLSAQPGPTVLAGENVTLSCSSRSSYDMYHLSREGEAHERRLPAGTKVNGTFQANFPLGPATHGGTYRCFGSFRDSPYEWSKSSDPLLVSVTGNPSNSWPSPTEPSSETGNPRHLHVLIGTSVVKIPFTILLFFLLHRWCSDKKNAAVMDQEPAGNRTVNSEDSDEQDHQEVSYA
UniProt P43632, residues 22-304: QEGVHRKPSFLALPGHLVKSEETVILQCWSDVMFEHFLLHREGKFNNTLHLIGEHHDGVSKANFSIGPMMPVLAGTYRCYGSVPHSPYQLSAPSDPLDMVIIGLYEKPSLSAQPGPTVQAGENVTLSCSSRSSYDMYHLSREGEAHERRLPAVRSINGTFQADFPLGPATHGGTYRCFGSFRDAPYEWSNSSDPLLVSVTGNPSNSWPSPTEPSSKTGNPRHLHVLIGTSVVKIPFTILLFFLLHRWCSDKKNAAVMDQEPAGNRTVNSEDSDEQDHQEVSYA
UniProt P20963: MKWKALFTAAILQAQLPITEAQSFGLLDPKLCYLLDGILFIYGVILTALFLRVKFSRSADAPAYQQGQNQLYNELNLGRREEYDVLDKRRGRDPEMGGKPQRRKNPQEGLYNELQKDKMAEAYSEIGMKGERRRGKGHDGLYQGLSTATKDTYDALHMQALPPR
UniProt O43914, residues 22-113: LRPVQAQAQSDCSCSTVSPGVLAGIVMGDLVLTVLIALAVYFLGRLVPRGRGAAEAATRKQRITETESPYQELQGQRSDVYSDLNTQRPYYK

Columns and labels:
[1] = target: CD16 (RFcγIII) (human) (UniProt P08637); assay: anti-CD16 immunoprecipitation from R.P. NK cell lysates, in vitro kinase test
[2] = target: T1, p50.2 KAR (human, UniProt P43631 22-304); assay: co-immunoprecipitation with anti-CD158 from 125I-labelled D.F. NK cell lysates, SDS-PAGE
T1 construct: whole, on cells; also called KAR of D.F. NK cells; KAR p50.2

[3] = target: p50.1 KAR (human) (UniProt Q14954); assay: anti-CD158 immunoprecipitation from R.P. NK cell lysates, in vitro kinase test, two-dimensional non-denaturing/denaturing SDS-PAGE
[4] = target: p50.3 KAR (human) (UniProt P43632); assay: anti-CD158 immunoprecipitation from MAL. NK cell lysates, in vitro kinase test, SDS-PAGE
[5] = target: p50.3 KAR (human) (UniProt P43632); assay: co-immunoprecipitation with anti-CD158 from 125I-labelled MAL. NK cell lysates, SDS-PAGE
[6] = target: p50.1 KAR (human) (UniProt Q14954); assay: anti-CD158 immunoprecipitation from R.P. NK cell lysates, in vitro kinase test
[7] = target: p50.1 KAR (human) (UniProt Q14954); assay: co-immunoprecipitation with EB6 from 125I-labelled R.P. NK cell lysates (1% digitonin), SDS-PAGE

Measured: binding

CD3ζ (from UniProt P20963 22-164)
binds: [1]

human KARAP (KAR-associated protein) DAP-12 (from UniProt O43914 22-113)
not listed: [1]
binds: all other assays above
